# How the values were obtained:
# hemorrhagic shock [1] = test: Example 1 second series: 30 min hemorrhagic shock, fluid resuscitation until t=300 min; format: in vivo, rat
# Experimental: In vivo animal experiments. All procedures were performed in accordance with the National Institutes of Health Guidelines for Use of Laboratory Animals and were approved by the University of South Florida Institutional Animal Care and Use Committeee (IS00008139). Male Sprague-Dawley rats (300-400 g, Envigo, Indianapolis, IN, USA). were anesthetized with 1.7% isoflurane via nose-cone inhalation with the SomnoSuite anesthesia system (Kent Scientific, Torrington, CT, USA). […] The left femoral artery was isolated and cannulated with a 24-gauge peripheral intravenous catheter to allow for blood withdrawal, hemodynamic monitoring, drug administration, and fluid resuscitation. Hemodynamics were continuously monitored with the SurgivetV6400 blood pressure monitor (Med-Electronics, Beltsville, MD, USA), and blood pressures and heart rate were recorded at 1-10 min intervals. All animals were observed over a 10 min period to ensure hemodynamic stability before start of the experiments. All experiments were performed randomized in alternating order.
# To test the effects of INCB3284 and Maraviroc after HS, a Wiggers fixed pressure hemorrhage and fluid resuscitation model was used as described (Babu F S, et al., Chemokine (C-X-C motif) receptor 4 regulates lung endothelial barrier permeability during resuscitation from hemorrhagic shock. Physiol Res 2019; 68(4):675-679; Nassoiy S P, et al., Effects of the Kv7 voltage-activated potassium channel inhibitor linopirdine in rat models of haemorrhagic shock. Clin Exp Pharmacol Physiol 2018; Nassoiy S P, et al., Kv7 voltage-activated potassium channel inhibitors reduce fluid resuscitation requirements after hemorrhagic shock in rats. J Biomed Sci 2017; 24(1):8; Bach H Ht, et al., Proteasome inhibition prolongs survival during lethal hemorrhagic shock in rats. […]
# Arterial blood gases and routine laboratory parameters. Arterial blood gases, electrolytes, creatinine, lactate, hematocrit and hemoglobin were analyzed using the Element point of care veterinary blood gas, electrolyte and critical care analyzer (Cuattro Veterinary USA, Loveland, CO, USA). […]
# hemorrhagic shock [2] = test: Example 2 Series 2: 60 min hemorrhagic shock, single dose, fluid resuscitation until t=300 min; format: in vivo, rat; conditions: 1.1 μmol/kg SB328437 or 5 μmol/kg INCB3284 at t=60 min, vs vehicle
# Experimental: The hemorrhagic shock models were performed as described previously, with slight modifications (DeSantis A J, et al., The Chemokine (C-C Motif) Receptor 2 Antagonist INCB3284 Reduces Fluid Requirements and Protects From Hemodynamic Decompensation During Resuscitation From Hemorrhagic Shock. Crit Care Explor 2022;4(5):e0701; Bach H H, et al., Chemokine (C-X-C motif) receptor 4 and atypical chemokine receptor 3 regulate vascular alpha(1)-adrenergic receptor function. Mol Med 2014; 20:435-47; Nassoiy S P, et al., Effects of the Kv7 voltage activated potassium channel inhibitor linopirdine in rat models of hemorrhagic shock. Clin Exp Pharmacol Physiol 2018. doi: 10.1111/1440-1681.12958. […] Hemodynamics were continuously monitored with the Surgivet invasive blood pressure monitor (Med-Electronics, Beltsville, MD, USA). Blood pressures were recorded at 1-5 min intervals during the hemorrhage and resuscitation periods. […] In all experiments animals were continuously monitored and remained under general anesthesia until euthanasia or death, as defined by asystole or loss of pulse pressure. […]
# Arterial blood gases and routine laboratory parameters. Arterial blood gases, electrolytes, creatinine, lactate, hematocrit and hemoglobin were analyzed using the Element point of care veterinary blood gas, electrolyte and critical care analyzer (Cuattro Veterinary USA, Loveland, CO, USA).
Compound,Lactate concentrations after the HS period (hemorrhagic shock [1]; 5 μmol/kg),Hematocrit values (hemorrhagic shock [1]; 5 μmol/kg vs vehicle),Partial pressures of O2/CO2 in arterial blood and creatinine concentrations (hemorrhagic shock [1]; 5 μmol/kg vs vehicle),"Hematocrit values, blood gases and lactate concentrations (hemorrhagic shock [2])"
COc1ccc([C@]2(O)CC[C@@H](N3CC[C@@H](NC(=O)CNC(=O)c4cccc(C(F)(F)F)c4)C3)CC2)cn1 [INCB3284],partially normalized,indistinguishable between groups,indistinguishable between groups,comparable among the groups
COC(=O)[C@H](Cc1ccc([N+](=O)[O-])cc1)NC(=O)c1cccc2ccccc12 [SB328437],,,,comparable among the groups
